# Percent effect of library compounds

The values are deposited in ChEMBL (CHEMBL3988442, “University of Dundee, Small-Polar-MMV Screening Library” (2021)).

The filed quantity is “Percent Effect” (%).
How 0% and 100% were set is not recorded. Most values in the screen are low, and negative values occur.
This is an unselected part of the compounds tested.
Two or more numbers in one place are separate tests of the same structure; such repeats can differ widely.

Mtb cholesterol medium: 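Whole-cell growth test on Mycobacterium tuberculosis, read after 4 days in a medium based on cholesterol and the lipid DPPC; the read-out is not stated. Concentration: 50 µM. Higher reads as more growth inhibition (inferred: compounds with an IC50 in retests scored well above the rest). Of about 69,000 compounds tested this way, about 370 (0.54%) reached 50% or more in at least one test.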
Mtb glucose medium: 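Phenotypic screen: M. tuberculosis growth, glucose 7H9 medium, 3 days; the read-out is not stated. Concentration: 50 µM. Higher reads as more growth inhibition (inferred: compounds with an IC50 in retests scored well above the rest). Of about 69,000 compounds tested this way, about 760 (1.1%) reached 50% or more in at least one test.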

Compound,Mtb cholesterol medium,Mtb glucose medium
Cc1noc(C(C)C)c1C(=O)NCCC(=O)N1CCCCC1,-5.446,6.863
Brc1ccc2[nH]c3c(c2c1)CCCC3c1nn[nH]n1 (configuration not stated),-13.33,-6.267
COCC1CCN(C(=O)c2cc(-c3ccco3)nc3c(Cl)cccc23)C1 (configuration not stated),-3.086,-9.477
CCCc1noc(CNC2CCCN(Cc3noc(C4CC4)n3)C2)n1 (configuration not stated),-6.101,9.586
CCOc1ncccc1C(=O)N1CCCC(c2nncn2C)C1 (configuration not stated),10.99,12
CN(C)S(=O)(=O)N(Cc1cscn1)c1ccccc1,-23.94,-16.59
Cn1cccc1C(O)CNC(=O)c1cccc(Cl)c1 (configuration not stated),8.808,19.1
CN(Cc1cccc(C#N)c1)Cc1nc2c(cnn2C)c(=O)[nH]1,-8.28,17.05
O=C(O)C(F)(F)F.[H][C@@]12CCN(Cc3ccc(OC)cc3)C[C@]1([H])[C@@H](CNC(=O)N(C)C)OC2,-18.63,-7.705 & -6.055
N#Cc1ccc(NCCCN2C(=O)COc3ccccc32)nc1,10.09,11.04 & 28.02
O=C(NC1CCCNC1=O)c1ccc2nc(-c3ccc(F)cc3)cn2c1 (configuration not stated),-26.38,-26.25 & 2.705
CCc1nnsc1-c1nc(C(C)C)nn1-c1ccc2c(c1)OCO2,-11.97,15.3
CCC[C@H]1CN(C2CCOCC2)C[C@@H]1NC(=O)CCn1ccnc1C,-0.9514,-5.969 & 1.975
[H][C@]12CCCC[C@]1([H])N(C(=O)N1CCN(C)CC1)CC[C@@]2(O)c1ccccc1,20.43,30.79
COc1cccc(-n2c(C)cc(C(=O)O)c2C)c1,-4.591,-1.47
Cc1nc(C)n(CC2CCCN(Cc3ccc(C(N)=O)cc3)C2)n1 (configuration not stated),17.99,-12.29
Cc1cc(C)n(CC2CN(CC(=O)N3CCNC3=O)CCO2)n1 (configuration not stated),-8.154,-19.47
Cc1cnc(C(=O)N2CCCC(c3c(C)c(=O)nc4n3CCC4)C2)cn1.Cl (configuration not stated),-10.52,-24.41
COc1ncccc1NC(=O)N(Cc1ccc(C(N)=O)cc1)C1CC1,-12.57,-3.422
Cc1noc(C)c1CN1CCOCC12CCN(c1cnccn1)CC2.O=C(O)C(F)(F)F,-0.8292,-9.577
Cl.O=C(NCc1ccccc1)C1=NOC2(CCNC2)C1 (configuration not stated),-4.284,-8.852
Cc1ccc(S(=O)(=O)Nc2ccc(=O)n(C)c2)c(Br)c1,2.125,-8.711 & -0.9853
Cc1cc(O)nc(C2CCCN(CCO)C2)n1 (configuration not stated),10.77,-27.6
Fc1ccc(F)c(CN2CCC(c3cnccn3)CC2)c1,17.51,26.95
O=S(=O)(C1CC1)N1CCC2(CCCN(c3ncc(F)cn3)C2)C1 (configuration not stated),9.212,-1.182 & 8.436
[H][C@@]1([C@H](C)C(=O)NCCOC)CCc2c(C)cc(OCC(=O)O)c(C)c2C1,-13.99,4.093 & 5.388
Cc1cnn(CC2CCCN2Cc2cc(C)no2)c1 (configuration not stated),6.544,14.53
CCN(Cc1ccc(Cl)c(Cl)c1)C(=O)CCn1cncn1,26.36,0.8887 & -1.542
COc1ccc(C2CCN(S(=O)(=O)CCCC#N)CC2)cc1,4.863,10.7 & -3.484
Cc1ccc(C)c(Sc2nccn(C)c2=O)c1,13.3,2.683
O=C(O)c1ccc(S(=O)(=O)Nc2c(F)cccc2-n2cccn2)cc1,-0.9995 & -6.075,-1.769
Cc1noc2ncc(S(=O)(=O)N3CCCC(C)(C)CC3)cc12,21.46,15.64 & 20.35
CSc1nccc(NCc2cc3n(n2)CCCN(C(=O)C2CCC2)C3)n1,0.4855,-0.6944
O=C(c1cc(Cn2ccc3ccccc32)[nH]n1)N1CCC[C@H]1CO,0.2447,22.91
Cc1nc2ccnn2c(C)c1CCC(=O)N1CCN(C2CC2)CC1,-9.912,-9.272
O=C1NCC2=C1C(c1ccccc1)Nc1ccccc1N2 (configuration not stated),-30.2,-13.9 & -6.428
CCN1CCCC(O)(CN(C)Cc2ccccc2F)C1 (configuration not stated),-17.23,7.803 & -11.62
CN(C)c1nc(NCCc2ccnn2C)ncc1F,-27.94,4.658
Cc1cccc(NC(=O)c2cncc(C3CCNCC3)n2)n1,19.61,23.6
Cc1cc(C2CCN(C(=O)c3cnn(C)c3)CC2)ccn1,-9.218,19.55
CCN1CCC2(CCN(Cc3ccc(OC)cc3)CC2)C1=O.O=C(O)C(F)(F)F,-19.72,-13.01
CN(Cc1cccc(F)c1)C(=O)c1ccncc1Cl,-8.195,5.16
CCc1cc(O)n2nc(C3CCCN3C(=O)c3ccccn3)cc2n1 (configuration not stated),-7.884 & -22.28,-24.89
Cc1ccc(C2(C(=O)NCCCn3cccn3)CCOCC2)cc1,-30.12,-23.37
CCNc1cc2c(nn1)CCN(C(=O)c1nccnc1N)C2,-6.101,-24.99
Cc1ccc(-c2nnc(CN3CCN(c4ccccn4)CC3)o2)cc1,4.938,9.209
CCN1CCC(NC(=O)c2ccc(F)cc2I)CC1,3.796,1.101
c1nc(N2CCOC(Cn3cncn3)C2)c2cc[nH]c2n1 (configuration not stated),5.601,-7.907
Cc1ccc2[nH]c(C(=O)NCCCn3ccnn3)c(C)c2c1,-39.7,-3.847
O=C(CN1CC(n2cccn2)C1)NCCCc1ccccc1,-5.395,13.54
COc1ncccc1CN1Cc2nccn2CC(CN2CCCC2)C1 (configuration not stated),-6.739,-20.63
Cc1cc(-c2cc(C3CCOC3)c(C#N)c(N)n2)ccc1Cl (configuration not stated),7.966,19.52
O=C(Nc1ccccc1)N1CCn2nnc(COc3cccnc3)c2C1.O=C(O)C(F)(F)F,1.171,15.5
O=C(O)C(F)(F)F.O=C(O)C(F)(F)F.[H][C@@]12CCN(c3ccc(C)nn3)[C@@]1([H])CCN2Cc1ccsc1,-3.259,3.134
COc1cccc(NC(=O)Cn2cc(-c3ccccc3)ncc2=O)c1,-21.55,0.03965
Cc1nn(C)cc1-c1ccnc(N2CCCN(CC(C)C)CC2)n1,-3.193 & 1.735,0.403
CN(C)Cc1cccc(-c2cccnc2C(=O)NCc2ccccn2)c1,-8.004 & -22.07,-34.91
CCN(CCc1nc2cc(C)ccc2[nH]1)C(=O)COC,-6.59,-0.1403
O=C(NCC1CCCOC1)c1ccc(-c2cccs2)[nH]c1=O (configuration not stated),-9.291 & -6.851,-34.29
O=C1N(c2ccc(Cl)cc2)Cc2n[nH]c(=O)n21,-6.877,27.92
CCCNC(=O)NC(=O)CN1C=Nc2ccccc2S1(=O)=O,-6.285,15.33
Cn1cc(CN2CCOCC3(CCN(C4CCOCC4)C3)C2)cn1 (configuration not stated),-32.92,-26.08
CCOc1ccc(NC2CCN(C)C2=O)cn1 (configuration not stated),-31.69,-90.85
Cc1nc(N2CCN(C(=O)c3cccs3)CC2)cc(-n2cccc2)n1,5.941,38.02
O=C(O)C(F)(F)F.c1csc(CN2Cc3nccn3CC(Cn3cncn3)C2)n1 (configuration not stated),-31.24,-18.25
O=C(O)C(F)(F)F.[H][C@@]12COC[C@]1(CNC(=O)c1ccsc1)CN(Cc1cccs1)C2,-14.21,-32.92
CNC(=O)N1CCC(NC(=O)c2cnn(C)c2)CC1,-16.55,-16.16
CC(C)COCCCNC(=O)NCC(O)c1cccc(F)c1 (configuration not stated),3.13,18.32
Cc1ccc(C(=O)N2C[C@@H](NS(C)(=O)=O)[C@H](C(C)C)C2)cc1O,-20.21,-16.05
O=C(NCc1ccccc1-n1cccn1)C1CC2(CCNCC2)CN1 (configuration not stated),23.69,16.69
COc1ccc(CC(C)Nc2cccc(SC)c2)cc1 (configuration not stated),60.45,44.26
COc1ccc2c(c1)CCCC2CC(=O)NCC(C)(C)C(=O)O (configuration not stated),-1.359,5.792 & 15.21
CSc1nc2ncc3c(=O)n(CCN4CCCCC4)ccc3n2n1,-7.949,-13.11
CC1CCC(NC(=O)CNC2(c3ccc(F)cc3)CCOCC2)CC1 (configuration not stated),-6.22,4.782
Oc1cccc(CN2CCN(C3CCc4ccccc4C3)CC2)c1 (configuration not stated),-25.2,-7.174 & 6.55
CCc1nc(C)sc1CN1CC[C@](O)(CC)[C@H](O)C1,-25.72,-5.953
O=C(CN1CCC(c2cc(=O)n3c(n2)CCCCC3)C1)N1CCCCC1.O=C(O)CC(O)(CC(=O)O)C(=O)O (configuration not stated),-16.79,7.101
COc1cccc(CC(C)NC(=O)NCc2ccn(C)c2)c1 (configuration not stated),1.196,4.313
Cc1nncn1CCNC(=O)C(C)(C)c1cccc(F)c1,3.345,-0.521
COCCn1cc(C(=O)NCCS(N)(=O)=O)c2ccccc21,-28.74,-57.48
CCn1nc2c(cc1=O)CN(Cc1nc(CCOC)no1)CC2,-4.661,-11.79

4 of the entries, repeated:

Compound	Mtb cholesterol medium	Mtb glucose medium
[H][C@]12CCCC[C@]1([H])N(C(=O)N1CCN(C)CC1)CC[C@@]2(O)c1ccccc1	20.43	30.79
COc1ncccc1CN1Cc2nccn2CC(CN2CCCC2)C1 (configuration not stated)	-6.739	-20.63
CSc1nccc(NCc2cc3n(n2)CCCN(C(=O)C2CCC2)C3)n1	0.4855	-0.6944
N#Cc1ccc(NCCCN2C(=O)COc3ccccc32)nc1	10.09	11.04 & 28.02